# Results taken from PubChem BioAssay AID1487 (National Center for Advancing Translational Sciences (NCATS), 2009).
# The list shows a part of the results. Further columns of the screen follow, without active or inactive calls. Most of these compounds were active or inconclusive in the main read-out, so they are no random draw. The note in brackets gives the kind of curve behind each potency; many fits are weak.
# Assay: qHTS Assay for Modulators of Lamin A Splicing
# Conditions: HeLa LMNA splicing GFP/RFP minigene ratio, 48 h
# In short: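 Read-out is the ratio of GFP to DsRed2 object intensity, acquired by 488 nm laser-scanning cytometry on HeLa lamin A-EGFP minigene reporter cells. Compound incubation 48 hrs at 37 °C in Opti-MEM with 2% FBS; DMSO 0.5% final.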
# [1] = measured here: RFP viability control channel
# [2] = measured here: GFP splicing reporter channel
structure (smiles),measurement,setting,value
CC(Sc1nnc2c(n1)C1CCC2(C)C1(C)C)C(=O)Nc1ccccc1 (stereo not drawn),AC50,[1],"22.4 µM [rising, single point]"
CCCOC(=O)c1ccc(NC(=O)C2C3CCC(C3)C2C(=O)O)cc1 (stereo not drawn),AC50,[2],"15.8 µM [rising, single point]"
c1cc2[nH]snc2c2nc(C3CC3)nc12,AC50,[2],"11.2 µM [rising, partial curve]"
same,AC50,[1],"11.2 µM [rising, partial curve]"
O=S(=O)(C/C(=C/CO)S(=O)(=O)c1ccccc1)c1ccccc1,AC50,[1],"10 µM [rising, partial curve]"
O=C(Nc1cccc2ccccc12)c1nn(C23CC4CC(CC(C4)C2)C3)cc1[N+](=O)[O-],AC50,[1],"31.6 µM [rising, single point]"
O=C(Nc1cccc(Cl)c1)Nc1ccc(Br)cc1F,AC50,[2],"12.6 µM [rising, partial curve]"
same,AC50,[1],"25.1 µM [rising, partial curve]"
CCCCNS(=O)(=O)c1ccc2nc(SCC(=O)Nc3cccc(F)c3)[nH]c2c1,AC50,[2],"6.31 µM [rising, full curve]"
same,AC50,[1],"11.2 µM [rising, partial curve]"
COc1cccc(-c2ccc3ncnc(NCCNC(C)=O)c3c2)c1,AC50,[2],"12.6 µM [falling, partial curve]"
same,AC50,[1],"11.2 µM [falling, partial curve, poor fit]"
O=C(COC(=O)c1cccnc1Cl)Nc1ccc2c(c1)OCCO2,AC50,[1],"0.112 µM [rising, full curve, poor fit]"
CCCCN(c1ccccc1)S(=O)(=O)N(C)C,AC50,[2],"0.708 µM [falling, full curve, poor fit]"
COc1ccc(Cc2nnc(SCC(=O)c3ccc(OC)cc3)o2)cc1,AC50,[1],"25.1 µM [rising, single point]"
CCOC(=O)c1ccc(NC(=S)NCCC2=CCCCC2)cc1,AC50,[1],"1.41 µM [rising, partial curve, poor fit]"
CCOc1cc(N2CCOCC2)c(OCC)cc1NC(=O)CC12CC3CC(CC(C3)C1)C2,AC50,[2],"0.01 µM [rising, full curve, poor fit]"
Cc1ccc(NNC2CC(=O)N(c3cccc(Cl)c3)C2=O)cc1 (stereo not drawn),AC50,[1],"35.5 µM [rising, single point]"
CCOc1cc(C)c(-c2onc(C(F)(F)F)c2-c2csc(C)n2)c(O)c1,AC50,[1],"25.1 µM [falling, single point]"
S=C(NCc1cccs1)Nc1ccccc1,AC50,[2],"10 µM [rising, single point]"
CCC12CN3CC(CC)(CN(C1)C3c1c(O)ccc3ccccc13)C2=O (stereo not drawn),AC50,[2],"35.5 µM [rising, single point]"
same,AC50,[1],"35.5 µM [rising, single point]"
CCN(CC)CCCNC(=O)c1cc(Sc2nnc(C)s2)nc2ccccc12,AC50,[1],"12.6 µM [rising, single point]"
CCc1ccccc1NC(=S)N(CCCN1CCOCC1)Cc1cccs1,AC50,[1],"11.2 µM [rising, single point]"
O=C(c1cccs1)N(Cc1cccnc1)c1nc2c(Cl)cccc2s1,AC50,[1],"35.5 µM [rising, single point]"
NC(=O)c1ccccc1NC(=O)C1CCCN(c2ncnc3onc(-c4ccc(F)cc4)c23)C1 (stereo not drawn),AC50,[2],"0.0316 µM [falling, full curve, poor fit]"
O=C(Cc1ccc(S(=O)(=O)N2CCCCC2)s1)Nc1ccc(F)c(F)c1,AC50,[2],"25.1 µM [rising, single point]"
Cc1ccc(Cn2ccc(NC(=O)c3cc(-c4ccc5c(c4)OCO5)on3)n2)cc1,AC50,[1],"0.794 µM [falling, full curve, poor fit]"
N#Cc1cccc(-c2ccc3ncnc(NCc4cccs4)c3c2)c1,AC50,[2],"17.8 µM [falling, partial curve, poor fit]"
same,AC50,[1],"17.8 µM [falling, partial curve]"
Cc1ccc(NC(=O)CN2C(=O)NC3(CCc4ccccc43)C2=O)cc1 (stereo not drawn),AC50,[1],"0.01 µM [falling, full curve, poor fit]"
CCC(C)(c1ccc(C(=O)OC)s1)c1ccc(C(=O)OC)s1,AC50,[2],"8.91 µM [rising, partial curve]"
COc1ccc(N2CCN(C(=O)CSc3n[nH]c(-c4ccccc4)n3)CC2)cc1,AC50,[2],"0.0282 µM [rising, full curve, poor fit]"
Cc1nn(Cc2ccc(Cl)c(Cl)c2)c(C)c1NC(=O)c1cc(C2CC2)on1,AC50,[1],"15.8 µM [rising, single point]"
O=C(Nc1ccccc1O)c1ccccc1O,AC50,[2],"7.94 µM [rising, partial curve]"
same,AC50,[1],"17.8 µM [rising, partial curve]"
Cc1ccc(CCNC(=O)CCN2N=C(c3ccc(C)cc3)CCC2=O)cc1,AC50,[2],"35.5 µM [rising, single point]"
O=C(Nc1ccc(N2CCOCC2)nc1)c1cccs1,AC50,[2],"8.91 µM [rising, partial curve, poor fit]"

# Taken from the listing (three entries):
structure (smiles),measurement,setting,value
COc1cccc(-c2ccc3ncnc(NCCNC(C)=O)c3c2)c1,AC50,[2],"12.6 µM [falling, partial curve]"
same,AC50,[1],"11.2 µM [falling, partial curve, poor fit]"
O=C(COC(=O)c1cccnc1Cl)Nc1ccc2c(c1)OCCO2,AC50,[1],"0.112 µM [rising, full curve, poor fit]"
